Measured values published in article doi:10.1101/2025.11.17.688879.
Results are given in words; binding and its absence hold for the method and conditions named. Binding seen in cells or lysates may run through a third protein. Some binding calls cover weakened binding; strength is not graded here. Sequences can lack the tags named with a protein. Blank lines part the entries; values can stand above or below the binder they belong to.

Experiments:
Assay in all cases: co-IP
[1] = target: T1, HA-MbSTING (STING of Monosiga brevicollis), expressed in HEK 293T (Monosiga brevicollis)
T1 sequence: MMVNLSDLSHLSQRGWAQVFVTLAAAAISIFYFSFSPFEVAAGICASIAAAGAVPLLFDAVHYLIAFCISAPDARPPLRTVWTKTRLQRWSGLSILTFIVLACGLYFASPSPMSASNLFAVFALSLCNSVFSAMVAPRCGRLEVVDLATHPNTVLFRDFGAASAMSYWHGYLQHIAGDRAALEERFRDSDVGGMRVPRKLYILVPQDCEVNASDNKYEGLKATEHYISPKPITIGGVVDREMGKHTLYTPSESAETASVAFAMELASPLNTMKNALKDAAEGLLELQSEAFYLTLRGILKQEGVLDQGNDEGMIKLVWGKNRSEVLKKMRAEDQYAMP

[2] = target: T2, MbFADS-FLAG (FADS-like desaturase of Monosiga brevicollis) (Monosiga brevicollis)
T2 sequence: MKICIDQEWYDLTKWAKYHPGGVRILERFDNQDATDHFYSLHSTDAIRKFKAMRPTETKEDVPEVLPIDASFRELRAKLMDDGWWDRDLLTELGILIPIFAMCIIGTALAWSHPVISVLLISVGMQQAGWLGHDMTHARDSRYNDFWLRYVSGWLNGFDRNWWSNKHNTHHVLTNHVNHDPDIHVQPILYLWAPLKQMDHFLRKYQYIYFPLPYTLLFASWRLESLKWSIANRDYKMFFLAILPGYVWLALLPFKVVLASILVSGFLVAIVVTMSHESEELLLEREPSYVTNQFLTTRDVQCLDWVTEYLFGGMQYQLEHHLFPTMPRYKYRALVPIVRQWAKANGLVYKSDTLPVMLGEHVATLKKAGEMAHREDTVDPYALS

[3] = target: T3, HA-MmSTING (STING of Mus musculus), expressed in HEK 293T (Mus musculus)
T3 sequence: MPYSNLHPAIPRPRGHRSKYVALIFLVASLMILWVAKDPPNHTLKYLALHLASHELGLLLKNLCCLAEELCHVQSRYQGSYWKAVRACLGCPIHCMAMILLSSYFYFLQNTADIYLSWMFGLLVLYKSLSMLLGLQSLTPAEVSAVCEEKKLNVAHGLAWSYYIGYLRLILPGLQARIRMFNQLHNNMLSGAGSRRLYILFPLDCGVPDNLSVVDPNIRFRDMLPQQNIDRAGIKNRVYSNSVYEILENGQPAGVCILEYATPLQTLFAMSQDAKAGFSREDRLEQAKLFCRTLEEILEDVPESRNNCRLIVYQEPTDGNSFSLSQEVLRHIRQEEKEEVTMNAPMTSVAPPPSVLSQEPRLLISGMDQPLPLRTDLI

[4] = target: HA-NvSTING (STING of Nematostella vectensis), expressed in HEK 293T (Nematostella vectensis)
[5] = target: T4, HA-XtSTING (STING of Xenopus tropicalis), expressed in HEK 293T (Xenopus tropicalis)
T4 sequence: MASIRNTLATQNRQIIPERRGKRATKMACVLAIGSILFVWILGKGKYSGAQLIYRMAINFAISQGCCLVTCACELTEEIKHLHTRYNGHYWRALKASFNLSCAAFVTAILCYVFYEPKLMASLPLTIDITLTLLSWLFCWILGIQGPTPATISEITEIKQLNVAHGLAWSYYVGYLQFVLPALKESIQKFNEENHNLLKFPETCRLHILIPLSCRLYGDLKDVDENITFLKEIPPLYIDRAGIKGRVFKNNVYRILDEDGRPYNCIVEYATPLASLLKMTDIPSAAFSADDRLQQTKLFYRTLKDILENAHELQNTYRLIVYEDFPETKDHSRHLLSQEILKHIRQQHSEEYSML

[6] = target: T5, NvFADS-FLAG (FADS-like desaturase of Nematostella vectensis) (Nematostella vectensis)
T5 sequence: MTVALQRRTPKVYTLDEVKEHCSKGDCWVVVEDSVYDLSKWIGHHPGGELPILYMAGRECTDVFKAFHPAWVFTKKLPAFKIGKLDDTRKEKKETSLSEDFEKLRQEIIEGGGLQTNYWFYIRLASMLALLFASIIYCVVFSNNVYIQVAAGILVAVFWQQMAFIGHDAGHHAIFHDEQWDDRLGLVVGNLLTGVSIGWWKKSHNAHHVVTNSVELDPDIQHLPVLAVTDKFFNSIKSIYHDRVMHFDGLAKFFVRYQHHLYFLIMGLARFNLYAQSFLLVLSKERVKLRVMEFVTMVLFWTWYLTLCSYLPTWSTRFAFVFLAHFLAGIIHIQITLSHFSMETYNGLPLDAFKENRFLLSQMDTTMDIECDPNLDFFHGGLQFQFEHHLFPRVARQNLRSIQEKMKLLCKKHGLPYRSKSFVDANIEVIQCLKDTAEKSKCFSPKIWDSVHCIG

binding [1]: no binding
B1: NvFADS-FLAG (FADS-like desaturase of Nematostella vectensis) (protein)
chain: T5 sequence

binding [2]: binds
B2: HA-MbSTING (STING of Monosiga brevicollis), expressed in HEK 293T (protein)
chain: T1 sequence

binding [1]: binds
binding [3]: binds
binding [4]: binds
binding [5]: binds
B3: MbFADS-FLAG (FADS-like desaturase of Monosiga brevicollis) (protein)
chain: T2 sequence

binding [1]: binds
binding [3]: binds weakly
B4: XtFADS2-FLAG (FADS2 of Xenopus tropicalis) (protein)
chain: MGMGGQSGEGCSSGNCVKPEARYSWEEIQKHNLKTDKWLVIERKVYNITQWVKCHPGGMRVIGHYAGEDATDAFHAFHPDKNFVRKFLKPLYVGELAENEPSQDRDKNAQQVEDFRALRKTAEDMGLFKSNPAFFIVYLFHILLIEFLAWCTLHYFGTGWIPTILTVLLLTISQAQAGWLQHDFGHLSVFKKSKWNHLIHKFIIGHLKGASANWWNHRHFQHHAKPNIFRKDPDVNMVNVFVLGDTQPVEFGKKRIKYLPYNHQHLYFFLIGPPLLIPIYFTIQIMKTMITRKDWVDLAWSVSYYARFFITFVPFYGVLGSLALLNAVRFIESHWFVWVTQMNHLPMVIDHEKYKDWLETQLAATCNIEPSFFNDWFSGHLNFQIEHHLFPTMPRHNYWKIAPLVRSLCSKYNVTYEEKCLYHGFRDVFRSLKKSGQLWLDAYLHK

binding [6]: binds
B5: HA-NvSTING (STING of Nematostella vectensis), expressed in HEK 293T (protein)
chain: MRRAEENNGFGTIPKRRNQHTPFYASIGMIVVIIVAFTSYHITSYGDDRNRAMRQYSFTFSLAYLAFLVGELLRRCCLFAEEYRHIETRYNGSLKKAIQTTFSFGHNNVLFVASLLFFVVFVASNDPNGSSSVIQGNSTAEPHTEMRQTSGWQGLWGQFIISALLTPLVVHLLGLRELSKVEESQLNEKENKNVADGLAWSYYFGYLKFVLPELEKQIEKTSKFRSKEKFVKKMFILIPSNCFWDDKIPGSDYDPQNRITFEGNTEPLEKTRGGVFLRHYKHSVYEIKDGENEPWFCIMEYATPLLTLYDMSVAQPGELSREERDAQVVVFLRKLQDILEGDRACQGKYELVTFSPDRDLADVMLRKLKDSELEIGG
